From publication doi:10.1101/2022.08.31.505729 come the findings set out here.

Sequences of proteins named here, by UniProt entry; tags and fusion partners are left off.
UniProt F4J8D3: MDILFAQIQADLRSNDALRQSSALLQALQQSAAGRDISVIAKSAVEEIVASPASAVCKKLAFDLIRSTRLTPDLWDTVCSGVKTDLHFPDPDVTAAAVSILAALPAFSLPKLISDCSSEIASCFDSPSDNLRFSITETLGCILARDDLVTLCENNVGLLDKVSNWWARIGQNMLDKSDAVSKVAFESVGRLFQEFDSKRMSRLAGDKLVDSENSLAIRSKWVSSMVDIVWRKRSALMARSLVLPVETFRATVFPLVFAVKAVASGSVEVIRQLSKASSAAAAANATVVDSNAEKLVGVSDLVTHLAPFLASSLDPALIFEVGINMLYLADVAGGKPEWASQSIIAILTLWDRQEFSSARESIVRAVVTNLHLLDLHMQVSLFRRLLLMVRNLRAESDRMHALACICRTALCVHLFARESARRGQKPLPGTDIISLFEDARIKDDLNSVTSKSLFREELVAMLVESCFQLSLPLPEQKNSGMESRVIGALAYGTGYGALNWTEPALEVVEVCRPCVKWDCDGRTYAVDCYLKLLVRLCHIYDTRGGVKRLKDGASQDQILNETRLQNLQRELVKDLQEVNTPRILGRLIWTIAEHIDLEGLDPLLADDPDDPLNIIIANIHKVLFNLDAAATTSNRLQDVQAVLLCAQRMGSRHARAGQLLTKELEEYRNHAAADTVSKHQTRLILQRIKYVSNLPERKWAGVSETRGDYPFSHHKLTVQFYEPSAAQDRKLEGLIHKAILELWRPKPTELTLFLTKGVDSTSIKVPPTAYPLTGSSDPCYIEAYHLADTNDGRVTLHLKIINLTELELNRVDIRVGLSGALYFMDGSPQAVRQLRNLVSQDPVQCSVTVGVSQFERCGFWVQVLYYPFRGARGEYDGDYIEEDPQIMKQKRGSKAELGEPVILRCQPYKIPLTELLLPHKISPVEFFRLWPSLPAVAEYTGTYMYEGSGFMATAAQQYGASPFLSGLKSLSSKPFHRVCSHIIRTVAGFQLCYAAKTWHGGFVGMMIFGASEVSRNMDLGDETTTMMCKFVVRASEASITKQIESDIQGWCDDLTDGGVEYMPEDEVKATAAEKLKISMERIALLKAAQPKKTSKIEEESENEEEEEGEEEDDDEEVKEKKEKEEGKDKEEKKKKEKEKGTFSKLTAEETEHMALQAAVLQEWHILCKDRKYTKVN

In assay [1] the target is T1, BAG4-GFP (Arabidopsis thaliana) (UniProt Q8RX71).
T1 sequence: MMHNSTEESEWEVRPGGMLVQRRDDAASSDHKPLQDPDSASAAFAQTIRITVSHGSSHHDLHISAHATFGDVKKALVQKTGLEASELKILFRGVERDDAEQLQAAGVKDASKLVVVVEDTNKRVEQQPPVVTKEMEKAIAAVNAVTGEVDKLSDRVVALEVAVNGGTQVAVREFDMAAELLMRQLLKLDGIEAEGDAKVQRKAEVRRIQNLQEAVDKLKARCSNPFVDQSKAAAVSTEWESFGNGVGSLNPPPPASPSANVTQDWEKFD
In words: co-IP.

Assay [2] has as its target T2, nYFP-AP2M (Arabidopsis thaliana) (UniProt O23140).
T2 sequence: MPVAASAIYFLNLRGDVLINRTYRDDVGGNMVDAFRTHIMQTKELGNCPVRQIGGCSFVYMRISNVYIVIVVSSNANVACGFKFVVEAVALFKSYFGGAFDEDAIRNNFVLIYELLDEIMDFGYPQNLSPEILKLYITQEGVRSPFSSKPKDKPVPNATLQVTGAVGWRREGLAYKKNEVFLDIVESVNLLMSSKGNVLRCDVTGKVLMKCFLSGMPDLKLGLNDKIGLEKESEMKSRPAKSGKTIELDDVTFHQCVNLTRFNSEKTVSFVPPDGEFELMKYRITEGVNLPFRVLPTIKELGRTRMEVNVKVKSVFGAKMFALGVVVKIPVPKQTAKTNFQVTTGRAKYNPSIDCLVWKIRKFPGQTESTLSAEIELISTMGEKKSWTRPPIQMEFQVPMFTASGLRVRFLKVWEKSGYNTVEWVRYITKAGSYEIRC
In words: split reporter.

These are yes or no findings as the source states them, for the method shown. In cells and extracts the contact can be indirect. Some results given as binding are weak or reduced against the parent protein; the word gives no strength. Where a sequence is shown, tags or fusion partners need not be part of it.

Consider “TPLATE (TPC subunit detected with α-TPLATE) (from UniProt F4J8D3 1-1176)”, for which, in assay [1], the binding result is “binds”.

B1: FORMIN-LIKE6 (FH6) (rBiFC fusion) (protein, UniProt Q9FJX6 25-899)
chain: EAHRRILHQPLFPESSTPPPPDFQSTPSPPLPDTPDQPFFPENPSTPQQTLFPPPPPPVSADVNGGLPIPTATTQSAKPGKKVAIVISVGIVTLGMLSALAFFLYRHKAKHASDTQKLVTGGGDGGGSRRFQEDSGPPTTTSSTFLYMGTVEPTRVSASESNGGTNGPVNSSPYRKLNSAKRSERYRPSPELQPLPPLAKPPQPSDNSPSALSPSSSSSGEECRDTAFYTPHGSAISSDDGYYTAFPRSANGSLPHSKRTSPRSKFGSAPTTAASRSPEMKHVIIPSIKQKLPPPVQPPPLRGLESDEQELPYSQNKPKFSQPPPPPNRAAFQAITQEKSPVPPPRRSPPPLQTPPPPPPPPPLAPPPPPQKRPRDFQMLRKVTNSEATTNSTTSPSRKQAFKTPSPKTKAVEEVNSVSAGSLEKSGDGDTDPSKPKLKPLHWDKVRASSDRATVWDQLKSSSFQLNEDRMEHLFGCNSGSSAPKEPVRRSVIPLAENENRVLDPKKSQNIAILLRALNVTREEVSEALTDGNPESLGAELLETLVKMAPTKEEEIKLREYSGDVSKLGTAERFLKTILDIPFAFKRVEAMLYRANFDAEVKYLRNSFQTLEEASLELKASRLFLKLLEAVLMTGNRMNVGTNRGDAIAFKLDTLLKLVDIKGVDGKTTLLHFVVQEITRSEGTTTTKDETILHGNNDGFRKQGLQVVAGLSRDLVNVKKSAGMDFDVLSSYVTKLEMGLDKLRSFLKTETTQGRFFDSMKTFLKEAEEEIRKIKGGERKALSMVKEVTEYFHGNAAREEAHPLRIFMVVRDFLGVLDNVCKEVKTMQEMSTSMGSASARSFRISATASLPVLHRYKARQDDTSSDSEHSSNSST
Regarding B1, the binding result in assay [2] is “binds weakly”.
